Results deposited as PubChem BioAssay AID504793 (Drosophila RNAi Screening Center, 2011)

Test: 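Knock-downs allowing continued mitosis even though DNA is damaged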 (primary screen)
Cells: Drosophila S2R+ cells
Knock-down reagent: long dsRNA against Drosophila genes, about 0.25 µg dsRNA per well
Time to read-out: 4 days of dsRNA, then 4 hours of drug before read-out
Conditions: doxorubicin 0.5 µM for 4 hours to cause double-strand breaks, in cells also given a low, harmless dose of dsRNA against nbs to sensitise the assay
Measurement: 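Mitotic index as the number of phospho-histone H3-positive cells in each well following doxorubicin, given as raw counts without normalisation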
Direction: mitotic cells: higher = more cells in mitosis, weaker G2 arrest
Active means: 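Genes are called active only when high mitotic counts were reproduced with independent dsRNAs and mitosis was checked for delay without damage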
Calls: active = confirmed in follow-up tests; inactive = not confirmed
The deposit covers about 23,000 reagents; below is a random part of those that have a named target and a result. Over the whole deposit, 62 (0.27%) were called active. 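Calls come from follow-up tests whose scores are not deposited, so confirmed genes may have low counts here; counts are not normalised per plate.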 Raw values vary from plate to plate and are shown uncorrected. A plus sign joins genes that one reagent is predicted to hit.

predicted target | dsRNA | mitotic cells, replicate 1 | Outcome
Tim17a2 (GeneID 40632) | DRSC12252 | 1 | inactive
Tim17a2 (GeneID 40632) | DRSC23837 | 2 | inactive
btd (GeneID 31912) | DRSC18747 | 10 | inactive
btd (GeneID 31912) | DRSC29060 | 3 | inactive
nAChRalpha5 (GeneID 34826) | DRSC01946 | 8 | inactive
nAChRalpha5 (GeneID 34826) | DRSC01947 | 9 | inactive
nAChRalpha5 (GeneID 34826) | DRSC22785 | 11 | inactive
nAChRalpha5 (GeneID 34826) | DRSC29085 | 3 | inactive
CG12155 (GeneID 31682) | DRSC23294 | 16 | inactive
CG11155 (GeneID 43822) | DRSC17205 | 11 | inactive
CG11155 (GeneID 43822) | DRSC29324 | 5 | inactive
Ser (GeneID 43275) | DRSC16856 | 8 | inactive
Ser (GeneID 43275) | DRSC25494 | 6 | inactive
Gr22c (GeneID 117499) | DRSC22081 | 9 | inactive
Gr22c (GeneID 117499) | DRSC29715 | 4 | inactive
melt (GeneID 38785) | DRSC11367 | 5 | inactive
Top3beta (GeneID 31565) | DRSC18724 | 3 | inactive
Cyp4d1 (GeneID 31188) | DRSC17694 | 17 | inactive
Cyp4d1 (GeneID 31188) | DRSC18456 | 17 | inactive
Cyp4d1 (GeneID 31188) | DRSC23948 | 4 | inactive
Spred (GeneID 36643) | DRSC05976 | 5 | inactive
Spred (GeneID 36643) | DRSC27475 | 6 | inactive
Prp39 (GeneID 43399) | DRSC15133 | 6 | inactive
Prp39 (GeneID 43399) | DRSC25186 | 3 | inactive
CadN (GeneID 35070) | DRSC03286 | 11 | inactive
CadN (GeneID 35070) | DRSC27368 | 6 | inactive
eIF4A (GeneID 33835) | DRSC03526 | 12 | inactive
eIF4A (GeneID 33835) | DRSC26043 | 9 | inactive
Cyp12d1-d + Cyp12d1-p | DRSC21507 | 10 | inactive
Cyp12d1-d + Cyp12d1-p | DRSC27261 | 7 | inactive
Or98a (GeneID 43341) | DRSC16774 | 13 | inactive
Or98a (GeneID 43341) | DRSC26173 | 3 | inactive
CG15539 (GeneID 43627) | DRSC15075 | 12 | inactive
CG14570 (GeneID 40416) | DRSC11731 | 5 | inactive
CG14570 (GeneID 40416) | DRSC24676 | 9 | inactive
shop (GeneID 32878) | DRSC20030 | 9 | inactive
shop (GeneID 32878) | DRSC26764 | 3 | inactive
wcy (GeneID 32690) | DRSC20132 | 8 | inactive
wcy (GeneID 32690) | DRSC26455 | 4 | inactive
Ythdc1 (GeneID 38420) | DRSC08141 | 6 | inactive
CG10853 (GeneID 38465) | DRSC08164 | 6 | inactive
CG10853 (GeneID 38465) | DRSC23600 | 5 | inactive
Cpr65Ec (GeneID 38775) | DRSC11025 | 14 | inactive
Cpr65Ec (GeneID 38775) | DRSC24191 | 6 | inactive
Kdm3 (GeneID 41143) | DRSC16393 | 3 | inactive
Kdm3 (GeneID 41143) | DRSC28659 | 6 | inactive

Targets listed so far whose target name starts with W or w (2):
predicted target | dsRNA | mitotic cells, replicate 1 | Outcome
wcy (GeneID 32690) | DRSC20132 | 8 | inactive
wcy (GeneID 32690) | DRSC26455 | 4 | inactive
